Among the data in PMC7862700 are binding signal values, retold here.

Protein sequences, listed by entry. Tags and fused reporters are not part of them. Lines headed by an entry give the natural chain unless they say otherwise; changes in a name come on top.
UniProt Q9Y603: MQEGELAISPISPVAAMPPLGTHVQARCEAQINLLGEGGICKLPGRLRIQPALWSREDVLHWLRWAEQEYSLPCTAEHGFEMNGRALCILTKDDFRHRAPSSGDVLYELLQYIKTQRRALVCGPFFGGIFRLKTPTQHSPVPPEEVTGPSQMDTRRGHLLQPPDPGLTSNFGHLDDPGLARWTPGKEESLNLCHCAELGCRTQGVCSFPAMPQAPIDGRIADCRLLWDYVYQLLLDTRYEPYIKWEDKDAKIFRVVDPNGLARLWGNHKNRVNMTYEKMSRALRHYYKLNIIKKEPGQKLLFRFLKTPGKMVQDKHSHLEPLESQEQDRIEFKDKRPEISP
UniProt P41212: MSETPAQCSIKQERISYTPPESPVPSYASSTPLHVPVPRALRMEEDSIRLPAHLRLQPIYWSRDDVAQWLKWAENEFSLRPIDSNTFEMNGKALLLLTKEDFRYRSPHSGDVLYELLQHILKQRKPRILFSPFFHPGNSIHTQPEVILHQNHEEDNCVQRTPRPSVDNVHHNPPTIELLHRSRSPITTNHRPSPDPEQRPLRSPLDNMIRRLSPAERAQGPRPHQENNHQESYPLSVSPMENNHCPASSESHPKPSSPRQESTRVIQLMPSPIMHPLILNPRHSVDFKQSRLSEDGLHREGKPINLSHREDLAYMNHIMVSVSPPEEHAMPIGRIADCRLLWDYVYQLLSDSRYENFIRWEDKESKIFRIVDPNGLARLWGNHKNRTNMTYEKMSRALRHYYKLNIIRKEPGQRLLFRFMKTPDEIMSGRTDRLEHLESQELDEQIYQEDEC

This is a selection; strong and weak results do not stand in their true shares. At the low end of the ranking the order means little.

What all share (assay): DAPPL (digital affinity profiling via proximity ligation, sequencing)
Common to all, as to conditions: 10 mM Tris-HCl pH 7.5, 50 mM NaCl, 1 mM DTT, 4% glycerol, room temperature, 30 min; GST-TFs on glutathione beads, 16-mer random dsDNA library, 0.1% …; high values mean tight binding; double strand, one strand shown; scale: fold enrichment (6-mer frequency, TF over GST control)

One assay deals with T1, ELF3 (UniProt P78545).
T1 sequence: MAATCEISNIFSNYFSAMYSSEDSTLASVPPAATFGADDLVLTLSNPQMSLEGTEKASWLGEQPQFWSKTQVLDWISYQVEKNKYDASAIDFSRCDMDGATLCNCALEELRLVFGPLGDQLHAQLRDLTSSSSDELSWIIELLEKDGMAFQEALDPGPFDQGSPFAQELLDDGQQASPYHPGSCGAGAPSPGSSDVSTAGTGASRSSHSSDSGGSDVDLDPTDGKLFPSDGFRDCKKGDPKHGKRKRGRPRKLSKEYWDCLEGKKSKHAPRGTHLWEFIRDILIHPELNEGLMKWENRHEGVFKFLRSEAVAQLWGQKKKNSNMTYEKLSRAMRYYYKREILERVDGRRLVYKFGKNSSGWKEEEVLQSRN

For another assay, the target named is ETV7 (UniProt Q9Y603).
The target in another assay is ETV6 (UniProt P41212).

For TGGGGG, the binding signal in the assay with ELF3 came out at 0.854; in the assay with ETV7, 0.806; in the assay with ETV6, 0.802.
CCAGTG: the figures for the binding signal with ELF3, with ETV7 and with ETV6 were 0.444, 0.559 and 0.451, respectively.
Turning to AGACGT, the values for the binding signal with ELF3, with ETV7 and with ETV6 were 0.535, 0.54 and 0.478, respectively.
As for CCATGT, the binding signal with ELF3 was found to be 0.7; in the assay with ETV7, 0.748; with ETV6 it was 0.851.
GGCAAA: the binding signal with ELF3 turned out to be 0.965; with ETV7, 0.936; with ETV6, 0.972.
Take GCTTGA: the binding signal in the assay with ELF3 was determined as 0.904; with ETV7 it was 0.859; with ETV6, 0.822.
The corresponding values for CTGGGA are 0.855, 0.804 and 0.877.
For the sequence GTCTGT, the figures for the binding signal with ELF3, with ETV7 and in the assay with ETV6 were 0.939, 0.92 and 0.805, respectively.
Consider CGTGTC, for which the figures for the binding signal with ELF3, with ETV7 and with ETV6 were 0.69, 0.803 and 0.747, respectively.
With GGTAGG, the binding signal worked out at 0.713 in the assay with ELF3, 0.794 in the assay with ETV7 and 0.688 with ETV6.
The corresponding values for GTGCGG are 0.785, 0.632 and 0.706.
As to GGGCCA, the binding signal in the assay with ELF3 came to 0.621; in the assay with ETV7, 0.716; with ETV6, 0.7.
The corresponding values for CCCAGC are 0.946, 0.85 and 0.822.
The corresponding values for TGAGTA are 0.384, 0.508 and 0.445.
The corresponding values for CATCGG are 0.678, 0.684 and 0.651.
In the case of GACACC, the binding signal with ELF3 was 0.769; with ETV7 it was 0.94; with ETV6, 0.876.
Take AGAGTT: the results for the binding signal in the assay with ELF3, with ETV7 and with ETV6 were 0.784, 0.83 and 0.805, respectively.
Consider ACTGAG, for which the figures for the binding signal with ELF3, with ETV7 and with ETV6 were 0.742, 0.797 and 0.667, respectively.
On to CGGAGT, for which the binding signal with ELF3 was determined as 0.287; in the assay with ETV7, 0.387; with ETV6, 0.319.
As to GTCGTT, the binding signal amounted to 0.598 with ELF3, 0.719 in the assay with ETV7 and 0.75 with ETV6.
Consider TCCGTG, for which the binding signal with ELF3 turned out to be 0.43; with ETV7, 0.513; with ETV6, 0.499.
Take ACGGCG: the binding signal with ELF3 was found to be 0.639; in the assay with ETV7, 0.853; with ETV6 it was 0.849.
As for CAGCGG, the binding signal came to 0.478 in the assay with ELF3, 0.486 with ETV7 and 0.486 with ETV6.
GCAGGA: the figures for the binding signal with ELF3, in the assay with ETV7 and with ETV6 were 0.9, 0.759 and 0.86, respectively.
In the case of GAGATT, the results for the binding signal with ELF3, in the assay with ETV7 and in the assay with ETV6 were 0.661, 0.768 and 0.714, respectively.
Consider GTGAAC, for which the results for the binding signal with ELF3, with ETV7 and in the assay with ETV6 were 0.898, 0.794 and 0.816, respectively.
For GGACTA, the binding signal with ELF3 stood at 0.998; with ETV7, 0.868; with ETV6, 0.813.
For the sequence GCGTAA, the figures for the binding signal with ELF3, in the assay with ETV7 and with ETV6 were 0.879, 0.898 and 0.872, respectively.
Consider CCACGG, for which the binding signal in the assay with ELF3 amounted to 0.895; with ETV7, 0.859; in the assay with ETV6, 0.842.
The corresponding values for GGGATG are 0.954, 0.941 and 0.9.
Consider GGATAG, for which the binding signal with ELF3 was determined as 0.78; with ETV7, 0.746; with ETV6, 0.755.
For the sequence GAGTGA, the binding signal with ELF3 was 0.35; in the assay with ETV7 it was 0.458; in the assay with ETV6, 0.409.
On to AGACAT, for which the binding signal in the assay with ELF3 worked out at 0.827; with ETV7, 0.91; with ETV6 it was 0.875.
The corresponding values for GCGTAC are 0.812, 0.931 and 0.924.
On to CGGTAA, for which the binding signal in the assay with ELF3 amounted to 0.928; with ETV7 it was 0.925; with ETV6, 0.975.
With TGGAGT, the binding signal in the assay with ELF3 was 0.51; with ETV7 it was 0.564; in the assay with ETV6, 0.491.
Consider GGTGGG, for which the binding signal with ELF3 turned out to be 0.593; in the assay with ETV7, 0.654; in the assay with ETV6, 0.685.
Take ACAGGT: the binding signal with ELF3 worked out at 0.797; with ETV7 it was 0.769; in the assay with ETV6, 0.786.
As to ACGTGA, the binding signal with ELF3 was determined as 0.248; with ETV7, 0.292; with ETV6 it was 0.273.
The corresponding values for CGGGGA are 0.379, 0.504 and 0.403.
The corresponding values for GTAGGC are 0.617, 0.819 and 0.698.
The corresponding values for GGTGCG are 0.595, 0.66 and 0.613.
Regarding AGACAA, the binding signal with ELF3 was 0.755; with ETV7, 0.849; with ETV6, 0.79.
As to GAGGCT, the binding signal in the assay with ELF3 came out at 0.59; with ETV7 it was 0.617; with ETV6, 0.6.
Consider GCGTGA, for which the binding signal with ELF3 was 0.286; with ETV7, 0.31; in the assay with ETV6 it was 0.269.
For the sequence TGTAGG, the figures for the binding signal in the assay with ELF3, with ETV7 and with ETV6 were 0.729, 0.805 and 0.815, respectively.
Consider AGGCCG, for which the figures for the binding signal with ELF3, in the assay with ETV7 and in the assay with ETV6 were 0.476, 0.507 and 0.488, respectively.
The corresponding values for CAGAGA are 0.579, 0.679 and 0.608.
In the case of GAACGG, the binding signal amounted to 0.569 in the assay with ELF3, 0.611 with ETV7 and 0.593 with ETV6.
Regarding GGTGCC, the binding signal in the assay with ELF3 is 0.746; with ETV7, 0.698; with ETV6 it was 0.739.
For GAGTGT, the binding signal with ELF3 is 0.445; with ETV7 it was 0.614; with ETV6, 0.532.
For the sequence ATCGGA, the binding signal with ELF3 was found to be 0.395; with ETV7, 0.411; with ETV6, 0.438.
The corresponding values for GTGATA are 0.634, 0.669 and 0.732.
With GACTGT, the values for the binding signal with ELF3, with ETV7 and with ETV6 were 0.422, 0.373 and 0.432, respectively.
With GACGTC, the results for the binding signal with ELF3, in the assay with ETV7 and with ETV6 were 0.794, 0.802 and 0.809, respectively.
The corresponding values for GTCGGC are 0.318, 0.442 and 0.382.
On to GTGATT, for which the figures for the binding signal with ELF3, with ETV7 and in the assay with ETV6 were 0.687, 0.738 and 0.747, respectively.
In the case of GCATCG, the binding signal in the assay with ELF3 was 0.692; in the assay with ETV7 it was 0.765; with ETV6 it was 0.808.
As for GGAGAT, the binding signal was found to be 0.295 in the assay with ELF3, 0.348 in the assay with ETV7 and 0.33 with ETV6.
As for AAGACA, the results for the binding signal with ELF3 and with ETV6 were 0.979 and 0.983, respectively.
ACGGGT: the binding signal with ELF3 came out at 0.853; in the assay with ETV6 it was 0.763.
Regarding GGATGA, the binding signal with ELF3 came to 0.859; with ETV6 it was 0.937.
AGACAG: the results for the binding signal with ELF3, with ETV7 and in the assay with ETV6 were 0.493, 0.591 and 0.48, respectively.
For GGTGAT, the binding signal with ELF3 came out at 0.759; with ETV7, 0.719; in the assay with ETV6, 0.796.
On to GCGGAT, for which the binding signal with ELF3 worked out at 0.931; in the assay with ETV7, 0.84; with ETV6, 0.829.
As for CAGCGA, the binding signal with ELF3 came out at 0.842; in the assay with ETV6, 0.796.
Consider TAGGAC, for which the results for the binding signal with ELF3, with ETV7 and in the assay with ETV6 were 0.853, 0.862 and 0.851, respectively.
In the case of GCGCGG, the results for the binding signal with ELF3 and in the assay with ETV6 were 0.885 and 0.821, respectively.
As for AGGCAT, the binding signal with ELF3 was determined as 0.751; with ETV7, 0.899; with ETV6, 0.813.
Consider CGGGGT, for which the binding signal stood at 0.562 with ELF3, 0.718 with ETV7 and 0.611 with ETV6.
As to AGGCCT, the binding signal is 0.978 with ELF3 and 0.929 in the assay with ETV6.
Take ATTGGA: the binding signal in the assay with ELF3 was 0.933; in the assay with ETV7, 0.913; with ETV6, 0.995.
Take GGGCTG: the binding signal with ELF3 came out at 0.927; with ETV6, 0.924.
Take TGAGAT: the binding signal with ELF3 is 0.747; in the assay with ETV7 it was 0.763; with ETV6, 0.624.
In the case of GAACCG, the binding signal came to 0.741 with ELF3, 0.693 with ETV7 and 0.711 with ETV6.
Turning to GACAAA, the binding signal with ELF3 came out at 0.833; with ETV6, 0.953.
For the sequence CGTCGG, the binding signal with ELF3 was determined as 0.48; with ETV7 it was 0.476; in the assay with ETV6, 0.403.
For the sequence GAACAG, the results for the binding signal with ELF3 and with ETV6 were 0.932 and 0.9, respectively.
As for GTAGTA, the binding signal with ELF3 was determined as 0.956; with ETV6, 0.94.
With AAGCGT, the binding signal in the assay with ELF3 is 0.908; with ETV7 it was 0.927; with ETV6, 0.863.
Regarding GAGCGT, the binding signal with ELF3 was 0.389; with ETV7 it was 0.423; with ETV6 it was 0.373.
Turning to CAGCAA, the figures for the binding signal with ELF3 and with ETV6 were 0.909 and 0.924, respectively.
With GATTGA, the results for the binding signal with ELF3, with ETV7 and with ETV6 were 0.938, 0.966 and 0.908, respectively.
The corresponding values for GGGTAA are 0.867, 0.959 and 0.841.
The corresponding values for GTGTAT are 0.954, 0.844 and 0.876.
As for GAGTCT, the results for the binding signal with ELF3, with ETV7 and with ETV6 were 0.379, 0.461 and 0.432, respectively.
The corresponding values for CAGGCT are 0.822, 0.764 and 0.812.
